The target in the assay is GFP-dPNUTS-Myc (D. melanogaster) (UniProt Q70HU3). Nature of the assay: co-IP; S2 cells transfected with Flag-Myc-dWdr82, GFP-dPNUTS-Myc or both; ectopic dPNUTS precipitated with GFP-Trap beads, Western blotting with anti-Myc antibodies. On the technique in general: In western blotting, separated proteins are transferred to a membrane and probed.

No constants are given. Whether binding was seen depends on the method and setting. Binding seen in cells or lysates may run through a third protein. A result given as binding can be weak or reduced; the word gives no strength. Where a sequence is shown, tags or fusion partners need not be part of it.

B1: Flag-Myc-dWdr82 (Drosophila Wdr82) (protein, UniProt Q9VLN1 1-317)
chain: MKIKLIDSVVRSFKVAKIFRENTDKINAIDFAPNGEHLISCSEDDQIVIYDCEKGTQSRTVNSKKYGVDLIHFTHANNTAIHSSTKVDDTIRYLSLHDNKYLRYFPGHTKKVISLCISPVEDTFLSGSLDKTLRLWDLRSPNCQGLMHLSGRPIAAYDPEGLIFAAGVNSESIKLYDLRSFDKGPFVTFKLNQEKECDWTGLKFSRDGKTILISTNGSVIRLVDAFHGTPLQTFTGYPNNKGIPIEASFSPDSQFIFSGSTDGRVHIWNADTGNKVSVLNGDHPGPVQCVQFNPKYMMLASACTNMAFWLPTSEEGL
For B1, the binding entry is “binds”.

For the origin of these results see article PMC3814315.
